Laboratory results: PubChem BioAssay AID1259254 (NCATS, 2017)

- Aim: 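Gene knock-downs that lead to re-replication, shown by excess G2 DNA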 (primary screen)
- System: human HCT116 colorectal cancer cells
- Reagent: single siRNA against human genes
- Timing: 3 days
- Detection: 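Nuclei stained with Hoechst and imaged; cell-cycle phase assigned by DNA content; G2 share scaled per plate, non-targeting siRNA 0%, GMNN siRNA 100%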
- Direction: G2 robust z-score: higher = more G2 cells, more excess DNA replication
- Call rule: 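An siRNA counts as active if its G2 robust z-score lies at least 5 MADs above the screen median; here such calls match roughly 38% of GMNN control or more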
Shown is one part, drawn at random, of about 59,000 reagents tested. About 1,550 of them (2.6%) were called active. 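G2 share is only a proxy for re-replication; each gene was hit by three separate siRNAs, and active genes were retested.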 A number with no mark means an inactive call. The numbers tell different reagents against one gene apart. Not all columns of the deposit are shown. Not stated in the record: the amount of reagent.

Gene | reagent no. | G2 robust z-score
DXO (GeneID 1797) | 1 | 0.105
DXO (GeneID 1797) | 2 | 0.742
DXO (GeneID 1797) | 3 | -1.28
C3 (GeneID 718) | 1 | 1.32
C3 (GeneID 718) | 2 | 1.21
C3 (GeneID 718) | 3 | -0.576
SNX20 (GeneID 124460) | 1 | 0.693
SNX20 (GeneID 124460) | 2 | 2.28
SNX20 (GeneID 124460) | 3 | -0.982
BRI3 (GeneID 25798) | 1 | -0.793
BRI3 (GeneID 25798) | 2 | -0.328
BRI3 (GeneID 25798) | 3 | 0.0856
PCDHGA8 (GeneID 9708) | 1 | -0.286
PCDHGA8 (GeneID 9708) | 2 | 1.23
PCDHGA8 (GeneID 9708) | 3 | 5.12 (active)
ABCD1 (GeneID 215) | 1 | -1.41
ABCD1 (GeneID 215) | 2 | 0.59
ABCD1 (GeneID 215) | 3 | -0.347
BEND5 (GeneID 79656) | 1 | -1.19
BEND5 (GeneID 79656) | 2 | -1.15
BEND5 (GeneID 79656) | 3 | -0.529
CACNG3 (GeneID 10368) | 1 | 1.07
CACNG3 (GeneID 10368) | 2 | -0.509
CACNG3 (GeneID 10368) | 3 | -0.64
LOC644215 (GeneID 644215) | 1 | 0.666
LOC644215 (GeneID 644215) | 2 | -0.227
LOC644215 (GeneID 644215) | 3 | 1.37
SCARB2 (GeneID 950) | 1 | 2.08
SCARB2 (GeneID 950) | 2 | -1.6
SCARB2 (GeneID 950) | 3 | -1.26
XRCC2 (GeneID 7516) | 1 | 1.47
XRCC2 (GeneID 7516) | 2 | 5.39 (active)
XRCC2 (GeneID 7516) | 3 | 0.721
CC2D2B (GeneID 387707) | 1 | 0.817
CC2D2B (GeneID 387707) | 2 | -0.125
CC2D2B (GeneID 387707) | 3 | -1.01
CELF5 (GeneID 60680) | 1 | 0.464
CELF5 (GeneID 60680) | 2 | -0.532
CELF5 (GeneID 60680) | 3 | 0.647
BTC (GeneID 685) | 1 | -1.15
BTC (GeneID 685) | 2 | -1.07
BTC (GeneID 685) | 3 | 5.17 (active)
ZDHHC5 (GeneID 25921) | 1 | -0.272
ZDHHC5 (GeneID 25921) | 2 | 4.11
ZDHHC5 (GeneID 25921) | 3 | -0.369
POU2AF3 (GeneID 120376) | 1 | 0.62
POU2AF3 (GeneID 120376) | 2 | 1.33
POU2AF3 (GeneID 120376) | 3 | -0.805
CCT8L2 (GeneID 150160) | 1 | 1.49
CCT8L2 (GeneID 150160) | 2 | -0.439
CCT8L2 (GeneID 150160) | 3 | 0.971
TAL2 (GeneID 6887) | 1 | 2.66
TAL2 (GeneID 6887) | 2 | 0.816
TAL2 (GeneID 6887) | 3 | 0.0507
RUNX3 (GeneID 864) | 1 | 4.77
RUNX3 (GeneID 864) | 2 | 1.33
RUNX3 (GeneID 864) | 3 | 3.95
RBM41 (GeneID 55285) | 1 | -0.576
RBM41 (GeneID 55285) | 2 | 0.272
RBM41 (GeneID 55285) | 3 | -0.937
OR5K3 (GeneID 403277) | 1 | 1.96
OR5K3 (GeneID 403277) | 2 | 0.679
OR5K3 (GeneID 403277) | 3 | 0.343
TMIGD1 (GeneID 388364) | 1 | 1.41
TMIGD1 (GeneID 388364) | 2 | -0.877
TMIGD1 (GeneID 388364) | 3 | -0.514
SYT17 (GeneID 51760) | 1 | -0.658
SYT17 (GeneID 51760) | 2 | -0.417
SYT17 (GeneID 51760) | 3 | -0.196
